Measurements published in publication PMC9170682.
Like-named read-outs stand apart in the source and are kept apart here. No constants are given. Whether binding was seen depends on the method and setting. Binding seen in cells or lysates may run through a third protein. These calls come from enrichment with a bait or labelling near it, and not all partners need be listed. For part of these data: A no says only that the protein was not detected with the bait. Where a sequence is shown, tags or fusion partners need not be part of it. Blank lines part the entries; values can stand above or below the molecule they belong to.

Sequences of proteins named here, by UniProt entry; tags and fusion partners are left off. A change or cut given only in a name is not applied to a line headed by its entry.
UniProt Q9C6P8: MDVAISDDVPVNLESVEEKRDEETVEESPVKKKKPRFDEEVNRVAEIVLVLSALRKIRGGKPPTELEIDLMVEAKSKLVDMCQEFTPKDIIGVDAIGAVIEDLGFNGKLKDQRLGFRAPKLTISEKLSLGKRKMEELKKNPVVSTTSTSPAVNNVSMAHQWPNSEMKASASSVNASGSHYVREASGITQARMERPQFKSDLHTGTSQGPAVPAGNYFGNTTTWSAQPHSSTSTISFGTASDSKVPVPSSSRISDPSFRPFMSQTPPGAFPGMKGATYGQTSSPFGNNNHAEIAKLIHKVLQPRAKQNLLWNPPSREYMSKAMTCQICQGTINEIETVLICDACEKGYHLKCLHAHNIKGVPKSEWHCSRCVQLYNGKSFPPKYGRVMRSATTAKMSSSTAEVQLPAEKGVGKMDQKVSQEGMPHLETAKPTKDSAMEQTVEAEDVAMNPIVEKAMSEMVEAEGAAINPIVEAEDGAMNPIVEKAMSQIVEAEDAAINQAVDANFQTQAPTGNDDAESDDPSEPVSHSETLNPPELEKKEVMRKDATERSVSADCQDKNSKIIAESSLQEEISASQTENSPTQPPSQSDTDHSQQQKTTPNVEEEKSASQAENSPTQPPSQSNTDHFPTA
UniProt Q9LPJ1: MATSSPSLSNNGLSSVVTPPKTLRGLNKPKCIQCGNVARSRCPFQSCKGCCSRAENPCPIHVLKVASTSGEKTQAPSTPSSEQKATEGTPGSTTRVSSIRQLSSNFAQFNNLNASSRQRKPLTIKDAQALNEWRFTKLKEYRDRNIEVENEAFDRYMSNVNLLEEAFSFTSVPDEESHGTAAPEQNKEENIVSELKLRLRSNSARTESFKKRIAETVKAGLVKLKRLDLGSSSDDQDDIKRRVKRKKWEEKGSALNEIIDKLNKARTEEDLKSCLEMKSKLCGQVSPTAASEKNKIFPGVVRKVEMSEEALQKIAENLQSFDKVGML
UniProt F4IX81: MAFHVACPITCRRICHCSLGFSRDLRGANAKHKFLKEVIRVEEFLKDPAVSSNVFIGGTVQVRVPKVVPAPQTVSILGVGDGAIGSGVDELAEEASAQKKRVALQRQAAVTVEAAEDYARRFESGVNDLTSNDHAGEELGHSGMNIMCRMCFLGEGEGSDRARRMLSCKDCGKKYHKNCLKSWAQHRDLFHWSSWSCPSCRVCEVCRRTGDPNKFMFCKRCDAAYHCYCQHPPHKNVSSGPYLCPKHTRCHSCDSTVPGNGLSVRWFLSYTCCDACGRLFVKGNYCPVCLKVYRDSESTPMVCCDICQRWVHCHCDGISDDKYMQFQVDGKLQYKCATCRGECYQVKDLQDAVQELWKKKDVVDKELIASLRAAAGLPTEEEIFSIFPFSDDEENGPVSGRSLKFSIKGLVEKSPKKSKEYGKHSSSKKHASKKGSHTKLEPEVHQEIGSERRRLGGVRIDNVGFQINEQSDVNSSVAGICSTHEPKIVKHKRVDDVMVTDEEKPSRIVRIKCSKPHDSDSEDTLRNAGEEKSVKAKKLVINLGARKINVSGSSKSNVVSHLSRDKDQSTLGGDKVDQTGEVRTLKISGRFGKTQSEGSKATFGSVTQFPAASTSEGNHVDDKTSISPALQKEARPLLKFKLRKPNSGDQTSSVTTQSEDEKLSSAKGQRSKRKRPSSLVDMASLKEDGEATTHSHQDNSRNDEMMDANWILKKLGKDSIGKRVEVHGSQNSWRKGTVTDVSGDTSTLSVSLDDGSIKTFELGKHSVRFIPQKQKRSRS
UniProt Q9FLP2: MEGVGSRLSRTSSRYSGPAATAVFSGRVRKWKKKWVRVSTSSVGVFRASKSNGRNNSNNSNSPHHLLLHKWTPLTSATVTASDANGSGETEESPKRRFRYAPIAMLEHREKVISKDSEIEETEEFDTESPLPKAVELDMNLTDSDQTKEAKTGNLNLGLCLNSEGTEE
UniProt F4IHS2: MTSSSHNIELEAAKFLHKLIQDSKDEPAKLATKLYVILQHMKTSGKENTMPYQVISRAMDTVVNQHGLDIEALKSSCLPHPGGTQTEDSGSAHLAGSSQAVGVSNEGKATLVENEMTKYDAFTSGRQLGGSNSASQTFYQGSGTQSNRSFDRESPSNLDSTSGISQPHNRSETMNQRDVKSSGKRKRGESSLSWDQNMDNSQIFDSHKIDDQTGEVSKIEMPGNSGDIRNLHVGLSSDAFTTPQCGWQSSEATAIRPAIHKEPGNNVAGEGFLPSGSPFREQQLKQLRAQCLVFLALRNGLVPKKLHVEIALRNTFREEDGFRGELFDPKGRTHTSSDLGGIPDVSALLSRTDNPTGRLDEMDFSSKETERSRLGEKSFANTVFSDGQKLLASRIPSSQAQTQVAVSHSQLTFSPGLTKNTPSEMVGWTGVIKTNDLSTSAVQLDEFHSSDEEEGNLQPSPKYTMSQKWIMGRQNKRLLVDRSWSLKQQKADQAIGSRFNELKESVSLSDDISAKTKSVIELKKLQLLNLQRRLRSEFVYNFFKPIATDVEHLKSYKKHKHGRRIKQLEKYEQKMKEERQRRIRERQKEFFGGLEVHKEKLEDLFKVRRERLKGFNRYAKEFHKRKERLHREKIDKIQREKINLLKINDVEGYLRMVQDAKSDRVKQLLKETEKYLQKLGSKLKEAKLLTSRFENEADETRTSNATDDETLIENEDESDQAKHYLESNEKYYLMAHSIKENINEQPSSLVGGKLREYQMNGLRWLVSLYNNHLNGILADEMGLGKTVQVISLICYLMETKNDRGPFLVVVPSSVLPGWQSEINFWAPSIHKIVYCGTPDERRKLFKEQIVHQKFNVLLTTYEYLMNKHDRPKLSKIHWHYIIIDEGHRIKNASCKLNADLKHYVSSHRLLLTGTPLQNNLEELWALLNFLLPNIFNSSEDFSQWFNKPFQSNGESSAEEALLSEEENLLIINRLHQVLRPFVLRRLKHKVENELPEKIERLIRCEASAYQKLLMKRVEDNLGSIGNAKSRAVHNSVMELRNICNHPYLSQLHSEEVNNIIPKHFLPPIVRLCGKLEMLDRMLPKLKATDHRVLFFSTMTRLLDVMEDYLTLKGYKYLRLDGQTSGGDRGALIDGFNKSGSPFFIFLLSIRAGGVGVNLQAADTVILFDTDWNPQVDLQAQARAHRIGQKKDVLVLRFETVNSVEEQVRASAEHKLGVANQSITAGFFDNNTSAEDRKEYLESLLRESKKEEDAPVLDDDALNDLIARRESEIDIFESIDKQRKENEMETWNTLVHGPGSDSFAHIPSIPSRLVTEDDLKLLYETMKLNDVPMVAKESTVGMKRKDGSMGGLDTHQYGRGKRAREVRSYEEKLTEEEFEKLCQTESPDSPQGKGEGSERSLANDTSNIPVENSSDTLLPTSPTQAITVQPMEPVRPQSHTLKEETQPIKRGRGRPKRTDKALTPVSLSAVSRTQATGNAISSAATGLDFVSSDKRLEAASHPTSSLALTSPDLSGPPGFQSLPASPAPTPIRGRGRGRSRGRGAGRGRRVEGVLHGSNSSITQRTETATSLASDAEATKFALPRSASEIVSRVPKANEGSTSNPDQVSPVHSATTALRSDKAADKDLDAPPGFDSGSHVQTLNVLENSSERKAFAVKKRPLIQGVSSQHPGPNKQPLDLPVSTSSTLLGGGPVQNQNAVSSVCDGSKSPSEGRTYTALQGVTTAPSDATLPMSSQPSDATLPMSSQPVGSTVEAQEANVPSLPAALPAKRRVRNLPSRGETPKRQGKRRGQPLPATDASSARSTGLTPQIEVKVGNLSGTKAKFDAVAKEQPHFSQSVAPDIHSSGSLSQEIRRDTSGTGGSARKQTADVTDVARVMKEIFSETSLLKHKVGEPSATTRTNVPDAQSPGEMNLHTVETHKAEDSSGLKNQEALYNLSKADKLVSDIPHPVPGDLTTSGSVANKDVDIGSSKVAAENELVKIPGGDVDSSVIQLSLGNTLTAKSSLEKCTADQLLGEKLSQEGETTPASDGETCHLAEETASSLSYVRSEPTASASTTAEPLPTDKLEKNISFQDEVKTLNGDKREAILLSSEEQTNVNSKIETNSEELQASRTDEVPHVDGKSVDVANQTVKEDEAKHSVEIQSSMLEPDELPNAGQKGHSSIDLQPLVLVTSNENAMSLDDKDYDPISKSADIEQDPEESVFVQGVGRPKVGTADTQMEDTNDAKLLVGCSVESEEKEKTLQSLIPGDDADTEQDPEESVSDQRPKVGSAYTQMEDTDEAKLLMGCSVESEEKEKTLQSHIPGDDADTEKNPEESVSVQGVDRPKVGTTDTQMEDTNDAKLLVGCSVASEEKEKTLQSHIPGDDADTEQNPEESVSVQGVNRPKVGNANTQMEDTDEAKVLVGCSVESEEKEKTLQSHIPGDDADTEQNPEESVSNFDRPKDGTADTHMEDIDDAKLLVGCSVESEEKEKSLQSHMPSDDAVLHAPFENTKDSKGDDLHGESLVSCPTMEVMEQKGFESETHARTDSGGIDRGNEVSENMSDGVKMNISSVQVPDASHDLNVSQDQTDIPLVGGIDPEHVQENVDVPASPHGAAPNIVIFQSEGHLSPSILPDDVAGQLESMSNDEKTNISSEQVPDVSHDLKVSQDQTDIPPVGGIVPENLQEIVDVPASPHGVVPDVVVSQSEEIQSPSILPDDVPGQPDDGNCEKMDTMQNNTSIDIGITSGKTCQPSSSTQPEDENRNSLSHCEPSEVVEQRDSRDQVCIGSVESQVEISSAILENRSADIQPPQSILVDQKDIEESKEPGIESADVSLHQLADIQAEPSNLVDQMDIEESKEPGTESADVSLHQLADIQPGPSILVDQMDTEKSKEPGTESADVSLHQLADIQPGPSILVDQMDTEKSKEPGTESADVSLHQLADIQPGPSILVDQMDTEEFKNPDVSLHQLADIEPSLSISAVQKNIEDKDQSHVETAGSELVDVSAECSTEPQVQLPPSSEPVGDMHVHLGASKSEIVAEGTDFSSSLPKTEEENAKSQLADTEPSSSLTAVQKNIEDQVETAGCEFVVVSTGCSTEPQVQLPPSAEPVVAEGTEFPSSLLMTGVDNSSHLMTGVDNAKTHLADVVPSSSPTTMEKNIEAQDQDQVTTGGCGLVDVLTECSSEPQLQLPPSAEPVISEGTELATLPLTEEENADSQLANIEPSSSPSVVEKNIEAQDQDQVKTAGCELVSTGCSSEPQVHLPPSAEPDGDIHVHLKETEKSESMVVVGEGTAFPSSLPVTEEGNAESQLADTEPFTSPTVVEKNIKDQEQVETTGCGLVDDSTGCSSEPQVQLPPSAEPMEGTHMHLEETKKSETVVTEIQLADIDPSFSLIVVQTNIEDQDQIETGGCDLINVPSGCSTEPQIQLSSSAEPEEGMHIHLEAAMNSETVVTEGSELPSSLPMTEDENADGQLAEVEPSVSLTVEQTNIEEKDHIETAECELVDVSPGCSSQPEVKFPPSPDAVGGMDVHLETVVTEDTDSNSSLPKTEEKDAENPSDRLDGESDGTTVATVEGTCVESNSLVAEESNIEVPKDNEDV

What was measured:
Assay in all cases: affinity purification with mass spectrometry; anti-FLAG M2 magnetic beads on extracts of 8 g inflorescences of TPF1-3xFLAG or SHH2-3xFLAG transgenic A. thaliana lines, Col-0 as control; IP buffer 50 mM Tris pH 7.6, 150 mM NaCl, 5 mM MgCl2, 10% glycerol, 0.1% NP40; 3 h at 4 °C; eluted with 3xFLAG peptide; LC-MS/MS, LFQ by MaxQuant; two independent experiments with two lines each
[1] = target: T1, TPF1-3xFLAG (A. thaliana) (UniProt F4J5R1)
T1 sequence: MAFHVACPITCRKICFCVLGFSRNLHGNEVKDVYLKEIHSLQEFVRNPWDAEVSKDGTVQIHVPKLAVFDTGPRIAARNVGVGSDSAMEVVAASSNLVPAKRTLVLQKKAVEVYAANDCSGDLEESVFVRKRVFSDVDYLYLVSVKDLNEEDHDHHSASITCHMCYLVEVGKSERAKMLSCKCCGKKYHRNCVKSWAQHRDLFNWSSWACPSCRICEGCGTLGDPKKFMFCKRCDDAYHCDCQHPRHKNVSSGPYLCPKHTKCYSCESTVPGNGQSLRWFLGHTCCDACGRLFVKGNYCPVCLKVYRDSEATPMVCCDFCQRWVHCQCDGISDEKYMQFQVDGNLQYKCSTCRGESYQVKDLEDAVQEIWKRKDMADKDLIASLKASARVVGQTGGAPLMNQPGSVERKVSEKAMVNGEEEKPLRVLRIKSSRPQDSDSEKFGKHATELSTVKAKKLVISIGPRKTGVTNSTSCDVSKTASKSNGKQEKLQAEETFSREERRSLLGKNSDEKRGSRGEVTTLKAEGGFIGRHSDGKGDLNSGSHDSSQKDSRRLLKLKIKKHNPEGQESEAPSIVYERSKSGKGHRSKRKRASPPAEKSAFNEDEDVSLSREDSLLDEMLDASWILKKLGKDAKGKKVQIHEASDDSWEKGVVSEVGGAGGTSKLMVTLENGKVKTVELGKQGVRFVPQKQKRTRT

[2] = target: T2, SHH2-3xFLAG (A. thaliana) (UniProt Q8RWJ7)
T2 sequence: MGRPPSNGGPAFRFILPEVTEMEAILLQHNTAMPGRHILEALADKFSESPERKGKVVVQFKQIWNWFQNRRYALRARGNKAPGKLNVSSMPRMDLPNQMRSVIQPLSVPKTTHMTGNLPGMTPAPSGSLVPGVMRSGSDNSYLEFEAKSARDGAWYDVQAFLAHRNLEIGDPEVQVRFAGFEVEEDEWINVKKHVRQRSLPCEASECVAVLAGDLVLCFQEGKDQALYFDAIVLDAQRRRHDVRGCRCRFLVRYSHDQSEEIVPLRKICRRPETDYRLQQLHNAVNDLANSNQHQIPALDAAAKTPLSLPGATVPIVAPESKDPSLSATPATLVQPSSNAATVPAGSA

[3] = target: T1, TPF1-3xFLAG (A. thaliana); remark: listed apart in the source
[4] = target: T2, SHH2-3xFLAG (A. thaliana); remark: listed apart in the source

Molecule: BRD2
binding [1]: no binding
binding [2]: no binding

Molecule: BRD13
binding [1]: no binding
binding [2]: no binding

Molecule: BRIP2
binding [1]: no binding
binding [2]: no binding

Molecule: ONE PHD FINGER 1 (from UniProt Q9C6P8)
binding [1]: binds
binding [2]: binds

Molecule: PLANT-SPECIFIC SWI/SNF-ASSOCIATED PROTEIN 1 (from UniProt Q9LPJ1)
binding [1]: binds
binding [2]: binds

Molecule: TPF2 (from UniProt F4IX81)
binding [1]: no binding
binding [2]: binds

B3: SAWADEE HOMEODOMAIN HOMOLOG 2 (protein, UniProt Q8RWJ7 1-348)
chain: T2 sequence
binding [3]: binds

B4: ARP7 (protein, UniProt Q8L4Y5 1-363)
chain: MEALVVDAGSKFLKAGAAIPDQSPAMIIPSQMKRMVDDGSSSADNPTTVFEDVTLDPIERGLIRDWDAMEDLLRYVVYTGLGWEEGNEGNILFTDPLCTPKAIREQLVQLMFETFNVSGFYASEQAVLSLYAVGRISGCTVDIGHGKIDIAPVLEGAVQHIASKRFELGGTELTKLFAQELGKTNPSMNLSMSDVEKLKEQYANCAEDEIAYKKTQNCEIEQHTLPDGQVISIGRERYSVGEALFQPSILGLEEHGIVEQLVRIISTVSSENHRQLLENTVLCGGTTSMTGFESRFQKEANLCSSAIRPTLVKPPEYMPENLGMYSAWVGGAILAKVVFPQNQHVTKADYDETGPSVVHRKCF
binding [3]: binds
binding [4]: binds

B7: SWP73B (protein, UniProt Q9FMT4 1-534)
chain: MSGNNNNPQKPQGSAPLPFGNPGMASASVPGNQGFAQSHMAANFQAQFQFSQAQALAHAQAQSKVQAQLQAQLQAQGMTMNQAQGSPGIGGLGPSSPSLTTPGSLNMKRFQQKPPMRPPGAPASNNTISPMRTMELTPAARKKKQKLPEKSLQERVAAILPESALYTQLLEFESRVDAALTRKKVDIQEALKNPPCIQKTLRIYVFNSFANQNNTIPGNPNADPPTWTLKIIGRILEDGVDPDQPGFVQKANPLHPKFSSFFKRVTVSLDQRLYPENPLIIWENARSPAPQEGFEIKRKGNQEFAASIRLEMNYVPEKFKLSTALMDVLGIEVETRPRIIAAIWHYVKARKLQNPNDPSFFNCDAALQKVFGEEKLKFTMVSQKISHHLSPPPPIHLEHKIKLSGNNPAVSACYDVLVDVPFPIQRDLNNLLANAEKNKEIEACDEAICAAIRKIHEHRRRRAFFLGFSQSPVEFINALIESQSKDLKVVAGEASRNAERERRSDFFNQPWVEDAVIRYLNRRPAAGNDGPGSW
binding [3]: binds
binding [4]: binds

Continued, values first:

binding [1]: binds
binding [2]: binds
Molecule: BCL-domain homolog 1

binding [1]: no binding
binding [2]: binds
Molecule: BDH2 (from UniProt Q9FLP2)

binding [1]: no binding
Molecule: BRAHMA (BRM) ATPase (from UniProt Q6EVK6 1-2193)

binding [1]: no binding
binding [2]: no binding
Molecule: BRD1

binding [1]: no binding
binding [2]: no binding
Molecule: BRIP1

binding [1]: binds
binding [2]: binds
Molecule: BROMODOMAIN 5

binding [1]: no binding
Molecule: SYD (from UniProt F4IHS2 1-3574)

binding [3]: binds
binding [4]: binds
B1: BSH (protein, UniProt P93045 1-240)
chain: MKGLVSTGWKGPVKFRMPTAENLVPIRLDIQFEGQRYKDAFTWNPSDPDNEVVIFAKRTVKDLKLPYAFVTQIAQSIQSQLSDFRAYEGQDMYTGEKIIPIKLDLRVNHTLIKDQFLWDLNNFESDPEEFARTLCKDLGVEDPEVGPAVAFAIREQLYEIAIQSVASARESRLSKKGRRGSDHGSASKASGLSMDLMKLFSFKSSVVRKRKDLDVYEPVVDLLTSEEVDALEAREERHAR

binding [3]: binds
binding [4]: binds
B2: LFR (protein, UniProt Q9LS90 1-460)
chain: MQKRELGKSGGNSGGSSGPPAKRGRPFGSTSANSAAAAAAAAAADAMSPSALLGPSLLVHNSFVEQNNRRIVLALQSGLKSEVTWALNTLTLLSFKEKEDIRRDVMPLAKIAGLLDALLLIIDDWRDIALPKDLTRGTRVRTLGTNASVTGFGNEYDALASIQPPGSGIGSSAAEALGKKSTGKHQSSQWWMEEDGLFNLDDEGRSEKQMCAIAASNVIRNFSFMPDNEVVMAQHRHCLETVFQCIHDHMTEDEELVTNSLETIVNLAHLMDLRIFSSLKQSYININEKKAVQAVVGILNSSVKAWNCAAAELLGRLIINPDNEPFISPLIPQIHKRLIDLLSIQAVDAQAAAVGALYNLVEVNMDCRLKLASERWAVDRLLKVIKTPHPVPEVCRKAAMILENLVSEPQNRGLLLAYENAFAELLFQEGKYSDSFARILYELTARSNSRVASARGIWGM

binding [3]: binds
binding [4]: binds
B5: ARP4 (protein, UniProt Q84M92 1-441)
chain: MYGGDEVSAIVVDLGSHTCKAGYAGEDAPKAVFPSVIGAVDGVEAMDVDVDSTKTNSNSEDSKTESEKEKSKRKLYVGSQAMSYRRDHMEVLSPIKDGIVSDWDLVDNIWEHAFKSCLMIDPTEHPMLLAEPPLNTQQQREKAAELMFEKYKVPALFMAKNPVLTSFATGRATSLVVDCGGGSTTISPVHDGYVLQKAVVSSPLGGEFLTDCLLKSLESKGIKIRPRYSFKRKEVRAGEFQVEDVDIPDTTESYKLFCQRMIVGDIKDSICRVPDTPYDDKSYSNIPTTSYELPDGQTLEIGADRFKVPDVMFNPSIVQTIPGMEKYAEMIPSVRGLPHMVMESINKCDVDIRRELYSSILLAGGTSSMQQLKERLEKDLIEESPHSARVKVLASGNTTERRFSVWIGGSILASLGSFQQMWFSKSEYEEHGASYIQRKCP

binding [4]: binds
B6: TRIPLE PHD FINGERS 1 (protein, UniProt F4J5R1 1-696)
chain: T1 sequence
